Taken from: PubChem BioAssay AID1259405 (NCATS, 2018)
Purpose: 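Mouse-designed siRNAs used to find CHO productivity engineering targets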 (primary screen). Cells: Chinese hamster CHO-K1 ovary cells with stable secreted eGFP expression. Knock-down reagent: single siRNA against mouse genes, 0.8 pmol siRNA per well (2 µl of 400 nM stock). Duration: 3 days. Measurement: 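Percent of the per-plate non-targeting control median for intracellular GFP per well by laser scanning cytometry and for cell viability by ATP luminescence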. Scale: GFP, % of control: higher = more GFP per well, higher productivity; viability (ATP), % of control: higher = more viable cells (more ATP). Rule for the call: 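a knock-down is called active if GFP reaches 120% or more of non-targeting control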.
In all, the deposit lists about 50,000 reagents; this is a random part of them. Over the whole deposit, about 4,000 (8%) got an active call. 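Mouse siRNA library applied to hamster cells; one well for each siRNA.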 The numbers tell different reagents against one gene apart.

Tapbp #1 — GFP, % of control: 62.9; viability (ATP), % of control: 55.6; Call: inactive
Tapbp #2 — GFP, % of control: 55.8; viability (ATP), % of control: 41.3; Call: inactive
Tapbp #3 — GFP, % of control: 55.9; viability (ATP), % of control: 56.2; Call: inactive
Sema7a #1 — GFP, % of control: 94.1; viability (ATP), % of control: 89.8; Call: inactive
Sema7a #2 — GFP, % of control: 83.1; viability (ATP), % of control: 87.3; Call: inactive
Sema7a #3 — GFP, % of control: 88.6; viability (ATP), % of control: 108; Call: inactive
Top1 #1 — GFP, % of control: 77.5; viability (ATP), % of control: 72.6; Call: inactive
Top1 #2 — GFP, % of control: 83.4; viability (ATP), % of control: 69.5; Call: inactive
Top1 #3 — GFP, % of control: 79.3; viability (ATP), % of control: 82.9; Call: inactive
Slc51a #1 — GFP, % of control: 62.5; viability (ATP), % of control: 35; Call: inactive
Slc51a #2 — GFP, % of control: 43.5; viability (ATP), % of control: 66.3; Call: inactive
Slc51a #3 — GFP, % of control: 99.3; viability (ATP), % of control: 65.8; Call: inactive
Nanos2 #1 — GFP, % of control: 79; viability (ATP), % of control: 68; Call: inactive
Nanos2 #2 — GFP, % of control: 52.6; viability (ATP), % of control: 64; Call: inactive
Nanos2 #3 — GFP, % of control: 93.4; viability (ATP), % of control: 55.8; Call: inactive
Krtap21-1 #1 — GFP, % of control: 124; viability (ATP), % of control: 95.8; Call: active
Krtap21-1 #2 — GFP, % of control: 83.7; viability (ATP), % of control: 80.4; Call: inactive
Krtap21-1 #3 — GFP, % of control: 126; viability (ATP), % of control: 92; Call: active
Slfn4 #1 — GFP, % of control: 64.3; viability (ATP), % of control: 63.2; Call: inactive
Slfn4 #2 — GFP, % of control: 85.1; viability (ATP), % of control: 70.1; Call: inactive
Slfn4 #3 — GFP, % of control: 50.9; viability (ATP), % of control: 60.7; Call: inactive
Dpysl5 #1 — GFP, % of control: 77.9; viability (ATP), % of control: 104; Call: inactive
Dpysl5 #2 — GFP, % of control: 48.4; viability (ATP), % of control: 67.4; Call: inactive
Dpysl5 #3 — GFP, % of control: 17.1; viability (ATP), % of control: 36.4; Call: inactive
Tuba8 #1 — GFP, % of control: 75.1; viability (ATP), % of control: 106; Call: inactive
Tuba8 #2 — GFP, % of control: 40; viability (ATP), % of control: 58.1; Call: inactive
Fam167a #1 — GFP, % of control: 80.7; viability (ATP), % of control: 39.8; Call: inactive
Fam167a #2 — GFP, % of control: 57.2; viability (ATP), % of control: 53.7; Call: inactive
Fam167a #3 — GFP, % of control: 78.4; viability (ATP), % of control: 80; Call: inactive

Reagents above marked active:
Krtap21-1 #1 — GFP, % of control: 124; viability (ATP), % of control: 95.8; Call: active
Krtap21-1 #3 — GFP, % of control: 126; viability (ATP), % of control: 92; Call: active
